Test results reported in PubChem BioAssay AID1671190 (National Center for Advancing Translational Sciences (NCATS), 2021).
Hit rate of the full screen: of about 580,000 compounds, about 6,100 (1.1%) were called active. The inconclusive results got no clear call from the source; some entries with a clear call stand among them for comparison. Calls follow the shape of the dose curve; as a rule, active = well fitted inhibition curve with a large enough effect; inconclusive = small, poorly fitted or top-dose-only effect, or another doubt; inactive = no such curve, though single readings can be large or run the other way. A potency beside an inconclusive call is a rough fit, not a confirmed value.

By UniProt entry, the sequences of proteins in these tests, tags left out. Where a name states a change or a piece, a line headed by the entry shows the natural chain unless it says otherwise.
UniProt P18054: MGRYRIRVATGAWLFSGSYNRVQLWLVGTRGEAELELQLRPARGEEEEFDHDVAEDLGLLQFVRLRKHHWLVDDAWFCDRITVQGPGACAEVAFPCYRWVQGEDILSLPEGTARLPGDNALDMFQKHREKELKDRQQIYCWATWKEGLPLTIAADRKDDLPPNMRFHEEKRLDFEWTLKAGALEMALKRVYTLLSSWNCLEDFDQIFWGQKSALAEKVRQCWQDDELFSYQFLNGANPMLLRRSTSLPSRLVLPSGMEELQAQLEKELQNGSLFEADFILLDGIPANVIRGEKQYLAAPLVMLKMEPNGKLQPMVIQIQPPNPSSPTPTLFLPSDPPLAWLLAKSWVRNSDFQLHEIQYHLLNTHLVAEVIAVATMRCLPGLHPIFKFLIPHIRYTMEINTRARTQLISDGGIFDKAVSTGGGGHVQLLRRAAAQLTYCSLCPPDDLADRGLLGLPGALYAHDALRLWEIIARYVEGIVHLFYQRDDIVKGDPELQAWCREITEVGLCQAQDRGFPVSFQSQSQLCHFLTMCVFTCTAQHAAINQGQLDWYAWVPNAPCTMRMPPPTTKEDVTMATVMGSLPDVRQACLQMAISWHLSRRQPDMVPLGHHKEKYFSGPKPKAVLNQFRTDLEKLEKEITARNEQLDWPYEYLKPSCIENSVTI

What follows are compounds tested against Polyunsaturated fatty acid lipoxygenase ALOX12 (Homo sapiens) (UniProt P18054) (assay: Primary qHTS assay for inhibitors of human arachidonate 12S-lipoxygenase (ALOX12): Round 2). Conditions: purified 12hLO, xylenol orange hydroperoxide absorbance; activity change, negative = inhibition: at 108 µM (top of the series) unless noted.
Method in brief: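 Hydroperoxide product was detected by ferrous iron/xylenol orange as the 573 to 405 nm absorbance ratio. Arachidonic acid at 40 uM (final) was turned over for 30 min at room temperature by 150 nM human 12hLO, pH 7.0 Hepes buffer, after 15 min compound preincubation.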
% is scaled to controls: 0 for no effect and ±100 for the full control effect; potency is read from the fitted curve at half-maximal effect.

Compound	Potency	activity change, negative = inhibition
O[C@@H]1C[C@@H](c2nc(-c3ccc4c(c3)OCO4)no2)N(CCCc2ccccc2)C1	inconclusive: 35.5 µM [inhibitor, full curve, poor fit]	–
CC(=O)N1CCCN(c2ncnc3c2CN(c2ccc([N+](=O)[O-])cc2)C(=O)N(C)C3)CC1	inactive	–
COc1ccc(S(=O)(=O)N2CCC(C(=O)NCCc3ccccc3)CC2)cc1	inconclusive: 112 µM [inhibitor, single point]	–
COc1ccc(S(=O)(=O)Nc2ccc(O)c3ccccc23)cc1	inactive	–
O=C(COc1ccc(F)cc1Cl)NC1CCCCCC1	inconclusive: 100 µM [inhibitor, single point]	–
COc1ccc(C2c3c(ncn(CCCN4CCOCC4)c3=N)Oc3ccc4ccccc4c32)cc1OC (stereo unspecified)	inactive	–
COC(=O)C(Cc1c[nH]c2ccccc12)NC(=O)c1cccs1 (stereo unspecified)	inconclusive: 126 µM [inhibitor, partial curve, poor fit]	–
CCc1nc(NCc2cccnc2)c2oc3ccccc3c2n1	inconclusive: 4.47 µM [inhibitor, full curve, poor fit]	–
COc1ccc(NC(=O)N2C[C@@H]3C[C@H](C2)c2ccc(NS(=O)(=O)c4ccc(NC(C)=O)cc4)c(=O)n2C3)cc1	inconclusive: 22.4 µM [inhibitor, single point]	–
NC(Cc1ccccc1)c1csc(Nc2ccc(C(=O)c3ccccc3)cc2)n1 (stereo unspecified)	inconclusive: 44.7 µM [inhibitor, partial curve]	–
C[S+](=O)([O-])CCn1ncc2cc(OCc3cccc(-c4cccc(CO)c4)c3)ccc21	inconclusive: 63.1 µM [inhibitor, partial curve, poor fit]	–
Oc1ccc(-c2n[nH]c(=S)n2-c2ccc3c(c2)OCCO3)cc1	inconclusive: 28.2 µM [inhibitor, full curve, poor fit]	–
COc1c(O)cnn(-c2ccccc2)c1=O	inconclusive: 100 µM [inhibitor, partial curve, poor fit]	–
O=C(c1cnc(C23CC4CC(CC(C4)C2)C3)[nH]c1=O)N1C[C@H]2CNC[C@H]2C1	inconclusive: 20 µM [inhibitor, full curve]	–
CN(CCO)c1ccc(C(C(=O)c2ccccc2)c2ccc(N(C)CCO)cc2)cc1	inconclusive: 50.1 µM [inhibitor, partial curve, poor fit]	–
COc1ccc(OCC(=O)Nc2nc3ccccc3[nH]2)cc1	inconclusive: 89.1 µM [inhibitor, single point]	–
COc1ccc(CC(=O)N(Cc2nc(-c3ccc(C)cc3)no2)C(C)C)cc1	inconclusive: 141 µM [inhibitor, partial curve, poor fit]	–
COc1ccc(CCC(=O)NNC(=O)c2cc(Cl)ccc2OC)cc1	inactive	–
COC(=O)COc1ccc2c3c(c(=O)oc2c1)CCC3	inconclusive: 44.7 µM [inhibitor, single point]	–
COc1ccc2c(COC(=O)c3ccccc3F)cc(=O)oc2c1	inactive	–
CN(Cc1ccnc2ccccc12)C(=O)C1CCC(=O)N(Cc2ccccc2F)C1 (stereo unspecified)	inconclusive: 126 µM [inhibitor, partial curve, poor fit]	–

3 neighbouring entries already listed, for reference:
Compound	Potency	activity change, negative = inhibition
O[C@@H]1C[C@@H](c2nc(-c3ccc4c(c3)OCO4)no2)N(CCCc2ccccc2)C1	inconclusive: 35.5 µM [inhibitor, full curve, poor fit]	–
CC(=O)N1CCCN(c2ncnc3c2CN(c2ccc([N+](=O)[O-])cc2)C(=O)N(C)C3)CC1	inactive	–
COc1ccc(S(=O)(=O)N2CCC(C(=O)NCCc3ccccc3)CC2)cc1	inconclusive: 112 µM [inhibitor, single point]	–

More results.

Compound	Potency	activity change, negative = inhibition
Cc1ccc2nc(SCC(=O)Nc3sc4c(c3C#N)CCC4)[nH]c2c1	inconclusive: 7.08 µM [inhibitor, full curve, poor fit]	–
CCN1CCN(C(c2ccc(OC)c(OC)c2)c2nnnn2C(C)(C)C)CC1 (stereo unspecified)	inconclusive: 50.1 µM [inhibitor, partial curve]	–
O=C(CN1CCN(c2ccc(O)cc2)CC1)Nc1ccnn1Cc1ccccc1Cl	inconclusive: 7.08 µM [inhibitor, full curve]	–
Cc1ccc(NC(=O)Cn2c(=O)c3cccn3c3ccccc32)c(Cl)c1	inconclusive: 63.1 µM [inhibitor, single point]	–
CCc1ccc(S(=O)(=O)N(C(=O)c2ccncc2)c2ccc(OC(=O)c3ccncc3)cc2)cc1	inconclusive: 44.7 µM [inhibitor, full curve, poor fit]	–
COc1ccc2c(c1)CCN=C2C[C@H]1CN(S(C)(=O)=O)CC[C@H]1CC(=O)O	inconclusive: 39.8 µM [inhibitor, full curve, poor fit]	–
Cc1ccc(NC(=O)COC(=O)c2ccc3ccccc3n2)cc1C	inconclusive: 44.7 µM [inhibitor, partial curve, poor fit]	–
COc1ccc(NC(=O)CSc2nc(N3CCOCC3)c3c(c2C#N)CCCC3)c(OC)c1	inactive	–
Cc1ccc2c(c1)C1CN(C)CCC1N2CC(=O)N(C)c1ccccc1 (stereo unspecified)	inconclusive: 31.6 µM [inhibitor, partial curve]	–
N#Cc1ccc(C23CC4(C2)[C@H](CN(Cc2ccc(C(F)(F)F)cc2)[C@@H]4c2ccccc2)C3c2ccc(C(F)(F)F)cc2)cc1 (stereo partly specified)	inactive	–
Cc1ccc(NS(=O)(=O)c2cccc(C(=O)NCC(c3cccs3)N(C)C)c2)cc1 (stereo unspecified)	inconclusive: 112 µM [inhibitor, partial curve, poor fit]	–
CCOc1ccc(CCNC(=O)CSc2nnnn2-c2ccc(C)cc2C)cc1OCC	inconclusive: 141 µM [inhibitor, partial curve, poor fit]	–
CCN(C(=O)c1ccc(F)cc1)C1CC1	inactive	–
Cc1ccccc1-c1cc(C(=O)NCc2cccc(Br)c2)n(CC2CC(c3cccnc3)=NO2)n1 (stereo unspecified)	active: 39.8 µM	–
COc1ccc2c(c1)cc(C(=O)N/N=C/c1c(O)c(C(=O)O)cc3ccccc13)n2C	inconclusive: 44.7 µM [inhibitor, partial curve, poor fit]	–
Cc1ccc(NC2C(=O)NC(=O)NC2=O)cc1	inactive	–
S=c1[nH]nc(COc2ccccc2)n1Cc1ccccc1	inconclusive: 31.6 µM [inhibitor, partial curve]	–
Fc1ccc(OCCCn2ccnc2)cc1	inconclusive: 2.51 µM [inhibitor, full curve, poor fit]	–
COc1ccc(N=C/C(C(=O)C(F)(F)F)=C(\O)c2cccs2)cc1	inconclusive: 28.2 µM [inhibitor, partial curve, poor fit]	–
CN(C)c1ccc(NC(=O)CSc2nc3ccsc3c(=O)n2CCCCCC(=O)O)cc1	inconclusive: 44.7 µM [inhibitor, partial curve, poor fit]	–
COc1ccc(-c2csc(C(C)(O)c3cccc(F)c3)n2)cc1OC (stereo unspecified)	inconclusive: 100 µM [inhibitor, single point]	–

Full records, quoted from the list:
CCN1CCN(C(c2ccc(OC)c(OC)c2)c2nnnn2C(C)(C)C)CC1 (stereo unspecified) is listed as Potency: inconclusive: 50.1 µM [inhibitor, partial curve]
COc1ccc(-c2csc(C(C)(O)c3cccc(F)c3)n2)cc1OC (stereo unspecified) is listed as Potency: inconclusive: 100 µM [inhibitor, single point]

(cont.)

Compound	Potency	activity change, negative = inhibition
CC(=O)Nc1cc(-c2cccc(F)c2)cn2c(-c3ccc(S(C)(=O)=O)cc3)cnc12	inconclusive: 2 µM [inhibitor, full curve, poor fit]	–
O=C(Cn1nnc(-c2cc(C(F)(F)F)cc(C(F)(F)F)c2)n1)NNC(=S)Nc1ccc(Cl)cc1	active: 17.8 µM	–
Cc1ccc(C)c(NCc2ccccn2)c1	inconclusive: 0.112 µM [inhibitor, full curve, poor fit]	–
Cc1ccc(C(=O)NCC(C)(C)CNC(=O)c2ccc(C)c(C)c2)cc1C	inconclusive: 50.1 µM [inhibitor, partial curve, poor fit]	–
Cc1nc(C(F)(F)F)ccc1C(=O)N1CCC1(C)C(=O)Nc1ccc2c(c1)OCO2 (stereo unspecified)	inactive	–
CN1CC(=O)N(C2CCCCC2)Cc2c(NCc3cccs3)ncnc21	inconclusive: 89.1 µM [inhibitor, single point]	–
COc1ccccc1-c1cccc(-c2nc(C(=O)N3CCCCC3)cc3c2[C@H](CCO)N(S(=O)C(C)(C)C)C3)c1 (stereo partly specified)	inconclusive: 89.1 µM [inhibitor, single point]	–
COc1ccc(NC(=O)c2cc([N+](=O)[O-])ccc2N2CCCC2)cc1S(N)(=O)=O	inconclusive: 63.1 µM [inhibitor, partial curve, poor fit]	–
CN1CCN(Cc2cccc(Oc3ccc(Cl)cc3)c2)CC1	inconclusive: 20 µM [inhibitor, partial curve]	–
CCOc1c(OC)cccc1C1C=C(C(=O)O)Nc2ncnn21 (stereo unspecified)	inconclusive: 4.47 µM [inhibitor, full curve]	–
O=C(CNC(=O)c1ccc(Cl)cc1)OCC(=O)c1ccc2c(c1)OCCO2	inactive	–
C#CCN(C[C@H]1[C@H](OC(=O)NCCCCCC)[C@H](OC(=O)NCCCCCC)C[C@H]2C(=O)N(c3ccccc3)C(=O)[C@@H]12)S(=O)(=O)c1ccc(C)cc1	inconclusive: 44.7 µM [inhibitor, partial curve, poor fit]	–
Cc1c(-c2ccccc2)nc2c(C)cc(Br)cc2c1C(=O)NC1CCCCC1	inactive	–
COc1cccc(SCc2noc(C(=O)NC(C)C)c2C(=O)O)c1	inconclusive: 28.2 µM [inhibitor, single point]	–
Cc1ccc(S(=O)(=O)/C=C/C#N)cc1	–	inconclusive: -37.6% [inhibitor]
Cc1ccc(F)cc1NC(=S)NCCc1ccccc1	inconclusive: 44.7 µM [inhibitor, partial curve, poor fit]	–
O=C(NC(c1ccc(-c2ccccc2)cc1)c1cnccn1)C1CCN(Cc2ccc3c(c2)OCO3)CC1 (stereo unspecified)	inconclusive: 39.8 µM [inhibitor, partial curve]	–
CCn1c(SCc2nc3ccccc3c(=O)[nH]2)nc2ccccc21	inconclusive: 100 µM [inhibitor, single point]	–
Cc1cc(NC(=O)COC(=O)C(C)Oc2ccc(Cl)cc2Cl)no1 (stereo unspecified)	inconclusive: 141 µM [inhibitor, partial curve, poor fit]	–
